From US6524800B2, “Exploiting genomics in the search for new drugs” (Affymetrix, Inc., priority 1997, dated 2003)
For part of these data: For at least one compound, name, drawing or mass did not settle the structure. Some results were stated once for a whole list of compounds, not compound by compound.

Columns and labels:
[1] = tested on: mRNA levels of nearly all yeast genes; test: transcript profiling with high-density oligonucleotide expression arrays; assay type: cell-based, S. cerevisiae; settings: for HXT5 transcript INCREASES: not detected in untreated
Procedure: In addition to measuring the inhibitory effects of purine derivatives in kinase assays and assays of cell growth, their effects on the mRNA levels of nearly all yeast genes were determined with high-density oligonucleotide expression arrays (17, 18). These arrays (19, 20) make it possible to measure quantitatively and in parallel mRNA levels for a very large number of genes after any chemical, environmental, or genetic perturbation.
Yeast cultures were grown to late logarithmic phase (15), treated with 25 μM concentrations of the inhibitors for 2 hours, after which cellular polyadenylated mRNA was isolated and converted to biotin-labeled complementary RNA (cRNA) (17, 18). The labeled cRNA was then hybridized to a set of four arrays containing more than 260,000 25-nucleotide oligomers (20).
15. […] Three cultures [110 ml, in yeast extract, peptone, and dextrose (YPD)] were inoculated with single colonies of YRP1 (MAT, erg6::LEU2, pdr5::TRP1, snq2::HIS6) and grown at 30° C. with constant agitation in a water bath incubator. When the cell density reached an optical density (OD) of 0.9 (at a wavelength of 600 nm), 27.5 μl of a 100 mM dimethyl sulfoxide (DMSO) stock solution of 52 or flavopiridol or DMSO alone was added. After 2 hours the cells were harvested by centrifugation and flash frozen with liquid nitrogen. For the temperature-sensitive cdc28 mutants, three cultures (75 ml, YPD) of AFS 199 (cdc28-13), AA104 (cdc28-4), and their isogenic background strain AFS34 (MATa, ade2-1, his3-11, leu2-3, trp1-1, ura3) were grown from single colonies to an OD of 0.9 (600 nm) and harvested as described. Frozen cells were stored at […]

[2] = tested on: a subset of the CDK family of protein kinases; settings: read-out: IC50 (50% kinase inhibition); cited from earlier work
[3] = yeast, inhibitor versus untreated

SMILES	HXT5 transcript INCREASES [1]	YAL061W alcohol/sorbitol dehydrogenase transcript INCREASES [1, 3]	YBR114W (RAD16) transcript INCREASES [1, 3]	YDR247W Serine/Threonine Kinase transcript INCREASE [1, 3]	YGRO43 transcript INCREASES [1, 3]	YNL327 W (EGT2) transcript DECREASES [1, 3]	IC50 [2] [µM]
CN1CC[C@H](c2c(O)cc(O)c3c(=O)cc(-c4ccccc4Cl)oc23)[C@H](O)C1 [flavopiridol, reference compound]	Not detected in untreated (˜12-14 × increase with drugs)	9-11 × with C52 & FLA	INCREASES 4-5 X both drugs	3-3.5 × INCREASE both drugs	INCREASES ˜4-7.5 × with drugs	DECREASES 2-3 fold (both drugs)	
Cn1cnc2c(NCc3ccccc3)nc(NCCO)nc21 [olomoucine]							7
CC(C)n1cnc2c(Nc3cccc(Cl)c3)nc(NCCO)nc21 [Compound 52, 2-(2-hydroxyethylamino)-6-(3-chloroanilino)-9-isopropylpurine]	Not detected in untreated (˜12-14 × increase with drugs)	9-11 × with C52 & FLA	INCREASES 4-5 X both drugs		INCREASES ˜4-7.5 × with drugs	DECREASES 2-3 fold (both drugs)	
